From US20050287612A1
These are yes or no findings as the source states them, for the method shown. Binding seen in cells or lysates may run through a third protein. Some entries that bind do so weakly or less than the wild type. Tags and fused reporters may be left off the sequences shown.

Tests used:
[1] = target: T1, full-length myc-tagged CARD-4 (human), Q9Y239; experiment: co-immunoprecipitation from transfected HeLa cells (FIG. 4B); details: remark: other sources report otherwise
T1 chain: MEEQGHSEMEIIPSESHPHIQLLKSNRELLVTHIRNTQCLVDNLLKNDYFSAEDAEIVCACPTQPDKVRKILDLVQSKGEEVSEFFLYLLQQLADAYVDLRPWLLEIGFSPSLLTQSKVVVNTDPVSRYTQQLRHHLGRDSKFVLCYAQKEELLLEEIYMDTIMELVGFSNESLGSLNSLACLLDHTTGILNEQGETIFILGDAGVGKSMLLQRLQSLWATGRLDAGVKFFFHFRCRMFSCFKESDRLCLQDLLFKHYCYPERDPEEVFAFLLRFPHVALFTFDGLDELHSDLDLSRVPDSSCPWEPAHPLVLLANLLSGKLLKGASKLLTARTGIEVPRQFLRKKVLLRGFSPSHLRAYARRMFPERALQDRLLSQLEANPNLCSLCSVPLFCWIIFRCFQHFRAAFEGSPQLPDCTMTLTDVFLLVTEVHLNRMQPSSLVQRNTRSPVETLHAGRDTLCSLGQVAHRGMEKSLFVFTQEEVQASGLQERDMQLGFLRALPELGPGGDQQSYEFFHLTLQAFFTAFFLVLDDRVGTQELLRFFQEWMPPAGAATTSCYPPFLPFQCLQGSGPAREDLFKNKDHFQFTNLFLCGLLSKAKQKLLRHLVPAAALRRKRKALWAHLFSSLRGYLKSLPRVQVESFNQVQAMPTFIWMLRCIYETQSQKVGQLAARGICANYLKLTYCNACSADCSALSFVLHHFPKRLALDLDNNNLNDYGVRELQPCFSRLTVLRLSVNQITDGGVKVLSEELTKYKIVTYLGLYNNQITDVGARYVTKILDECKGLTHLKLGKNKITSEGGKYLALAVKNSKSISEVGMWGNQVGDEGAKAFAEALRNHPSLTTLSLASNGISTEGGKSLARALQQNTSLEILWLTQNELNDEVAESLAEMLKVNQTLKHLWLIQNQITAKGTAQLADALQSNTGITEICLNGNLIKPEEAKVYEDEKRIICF

[2] = target: T1, full-length myc-tagged CARD-4 (human), …; experiment: co-immunoprecipitation from transfected HeLa cells: anti-HA IP, Western blot for Myc-tagged CARD-4; details: remark: other sources report otherwise

B1: full-length hemagglutinin (HA) tagged CARD-4, Q9Y239 1-953 (protein, not shown: small tags and cut ends)
chain: MEEQGHSEMEIIPSESHPHIQLLKSNRELLVTHIRNTQCLVDNLLKNDYFSAEDAEIVCACPTQPDKVRKILDLVQSKGEEVSEFFLYLLQQLADAYVDLRPWLLEIGFSPSLLTQSKVVVNTDPVSRYTQQLRHHLGRDSKFVLCYAQKEELLLEEIYMDTIMELVGFSNESLGSLNSLACLLDHTTGILNEQGETIFILGDAGVGKSMLLQRLQSLWATGRLDAGVKFFFHFRCRMFSCFKESDRLCLQDLLFKHYCYPERDPEEVFAFLLRFPHVALFTFDGLDELHSDLDLSRVPDSSCPWEPAHPLVLLANLLSGKLLKGASKLLTARTGIEVPRQFLRKKVLLRGFSPSHLRAYARRMFPERALQDRLLSQLEANPNLCSLCSVPLFCWIIFRCFQHFRAAFEGSPQLPDCTMTLTDVFLLVTEVHLNRMQPSSLVQRNTRSPVETLHAGRDTLCSLGQVAHRGMEKSLFVFTQEEVQASGLQERDMQLGFLRALPELGPGGDQQSYEFFHLTLQAFFTAFFLVLDDRVGTQELLRFFQEWMPPAGAATTSCYPPFLPFQCLQGSGPAREDLFKNKDHFQFTNLFLCGLLSKAKQKLLRHLVPAAALRRKRKALWAHLFSSLRGYLKSLPRVQVESFNQVQAMPTFIWMLRCIYETQSQKVGQLAARGICANYLKLTYCNACSADCSALSFVLHHFPKRLALDLDNNNLNDYGVRELQPCFSRLTVLRLSVNQITDGGVKVLSEELTKYKIVTYLGLYNNQITDVGARYVTKILDECKGLTHLKLGKNKITSEGGKYLALAVKNSKSISEVGMWGNQVGDEGAKAFAEALRNHPSLTTLSLASNGISTEGGKSLARALQQNTSLEILWLTQNELNDEVAESLAEMLKVNQTLKHLWLIQNQITAKGTAQLADALQSNTGITEICLNGNLIKPEEAKVYEDEKRIICF
[1]
  binding: binds
[2]
  binding: binds
